From the supplement of paper PMC10849652
The list shows a part of the results.

Chains of the proteins cited; added tags and fusions are not shown. Lines headed by an entry give the natural chain unless they say otherwise; changes in a name come on top.
UniProt Q9BRS2: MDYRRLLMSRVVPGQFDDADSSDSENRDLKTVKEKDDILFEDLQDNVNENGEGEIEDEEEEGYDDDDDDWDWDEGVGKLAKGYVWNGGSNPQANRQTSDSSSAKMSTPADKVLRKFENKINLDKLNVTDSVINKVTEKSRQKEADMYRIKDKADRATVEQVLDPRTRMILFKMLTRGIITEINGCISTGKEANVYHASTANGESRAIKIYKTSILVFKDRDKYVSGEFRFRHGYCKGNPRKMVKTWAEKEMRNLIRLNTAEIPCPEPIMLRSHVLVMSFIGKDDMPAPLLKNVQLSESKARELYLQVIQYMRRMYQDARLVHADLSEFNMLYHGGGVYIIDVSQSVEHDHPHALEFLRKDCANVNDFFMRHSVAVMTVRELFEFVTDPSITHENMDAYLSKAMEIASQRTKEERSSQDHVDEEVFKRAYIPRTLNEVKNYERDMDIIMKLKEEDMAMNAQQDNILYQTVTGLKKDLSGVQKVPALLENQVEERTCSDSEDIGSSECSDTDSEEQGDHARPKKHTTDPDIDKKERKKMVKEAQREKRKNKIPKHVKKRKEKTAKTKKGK
UniProt Q9Y508: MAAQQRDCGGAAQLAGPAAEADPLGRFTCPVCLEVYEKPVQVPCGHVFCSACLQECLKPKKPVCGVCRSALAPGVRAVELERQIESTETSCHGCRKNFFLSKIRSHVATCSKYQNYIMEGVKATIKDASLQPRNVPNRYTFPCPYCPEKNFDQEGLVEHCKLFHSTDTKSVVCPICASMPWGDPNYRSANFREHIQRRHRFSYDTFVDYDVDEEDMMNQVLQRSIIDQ
UniProt Q9BQY4: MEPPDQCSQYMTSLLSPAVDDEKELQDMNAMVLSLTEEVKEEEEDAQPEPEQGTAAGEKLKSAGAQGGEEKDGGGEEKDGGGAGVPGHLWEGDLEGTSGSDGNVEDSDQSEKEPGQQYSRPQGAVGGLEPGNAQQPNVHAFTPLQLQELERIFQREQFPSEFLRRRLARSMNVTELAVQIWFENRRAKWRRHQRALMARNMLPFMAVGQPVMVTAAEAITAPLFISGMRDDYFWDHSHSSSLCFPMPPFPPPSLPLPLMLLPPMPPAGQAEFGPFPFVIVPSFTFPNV
UniProt Q8TDP1: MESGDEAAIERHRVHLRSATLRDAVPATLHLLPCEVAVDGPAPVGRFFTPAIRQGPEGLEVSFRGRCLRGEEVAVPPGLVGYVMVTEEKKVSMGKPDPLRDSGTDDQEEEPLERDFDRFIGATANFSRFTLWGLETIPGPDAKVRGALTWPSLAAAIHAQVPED
UniProt Q96TC7: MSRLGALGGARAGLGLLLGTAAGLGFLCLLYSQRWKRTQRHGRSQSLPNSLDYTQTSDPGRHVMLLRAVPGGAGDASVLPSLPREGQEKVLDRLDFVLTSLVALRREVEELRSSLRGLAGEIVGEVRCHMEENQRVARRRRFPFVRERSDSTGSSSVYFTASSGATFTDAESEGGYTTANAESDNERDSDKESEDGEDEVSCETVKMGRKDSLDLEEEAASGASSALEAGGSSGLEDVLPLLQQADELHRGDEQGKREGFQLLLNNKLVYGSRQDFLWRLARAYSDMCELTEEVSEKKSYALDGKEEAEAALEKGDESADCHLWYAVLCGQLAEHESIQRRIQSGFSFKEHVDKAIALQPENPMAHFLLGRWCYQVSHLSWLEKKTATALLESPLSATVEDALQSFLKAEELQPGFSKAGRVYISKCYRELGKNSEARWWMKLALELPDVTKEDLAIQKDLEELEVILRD
UniProt Q9UBF6, whole entry, looked up: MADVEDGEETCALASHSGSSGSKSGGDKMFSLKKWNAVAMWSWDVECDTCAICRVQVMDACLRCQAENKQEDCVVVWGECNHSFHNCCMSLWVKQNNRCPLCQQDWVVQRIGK
UniProt Q96AT9: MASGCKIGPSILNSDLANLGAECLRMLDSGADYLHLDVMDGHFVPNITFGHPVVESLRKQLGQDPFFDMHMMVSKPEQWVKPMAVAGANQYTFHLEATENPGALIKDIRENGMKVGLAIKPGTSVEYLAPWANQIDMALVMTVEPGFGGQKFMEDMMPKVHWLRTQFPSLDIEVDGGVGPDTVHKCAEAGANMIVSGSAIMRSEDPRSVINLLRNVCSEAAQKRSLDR
UniProt Q9H6T3, whole entry, looked up: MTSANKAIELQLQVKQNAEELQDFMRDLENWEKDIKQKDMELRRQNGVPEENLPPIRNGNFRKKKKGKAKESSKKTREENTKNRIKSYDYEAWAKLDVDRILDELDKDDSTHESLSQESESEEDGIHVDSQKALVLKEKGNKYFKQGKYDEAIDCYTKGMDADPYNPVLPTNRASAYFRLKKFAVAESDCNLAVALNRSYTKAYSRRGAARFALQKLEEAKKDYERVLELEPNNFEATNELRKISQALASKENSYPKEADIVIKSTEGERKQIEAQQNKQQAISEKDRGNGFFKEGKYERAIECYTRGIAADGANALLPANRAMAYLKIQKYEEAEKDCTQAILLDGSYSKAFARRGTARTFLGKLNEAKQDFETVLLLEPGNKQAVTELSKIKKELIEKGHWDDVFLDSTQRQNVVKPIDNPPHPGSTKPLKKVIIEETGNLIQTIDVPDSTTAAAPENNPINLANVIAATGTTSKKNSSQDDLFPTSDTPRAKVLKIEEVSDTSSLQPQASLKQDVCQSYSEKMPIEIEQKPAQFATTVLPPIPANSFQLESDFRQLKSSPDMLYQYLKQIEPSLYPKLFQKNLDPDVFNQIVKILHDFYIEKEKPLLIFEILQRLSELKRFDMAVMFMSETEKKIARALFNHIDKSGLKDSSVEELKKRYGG
UniProt Q8IUF8: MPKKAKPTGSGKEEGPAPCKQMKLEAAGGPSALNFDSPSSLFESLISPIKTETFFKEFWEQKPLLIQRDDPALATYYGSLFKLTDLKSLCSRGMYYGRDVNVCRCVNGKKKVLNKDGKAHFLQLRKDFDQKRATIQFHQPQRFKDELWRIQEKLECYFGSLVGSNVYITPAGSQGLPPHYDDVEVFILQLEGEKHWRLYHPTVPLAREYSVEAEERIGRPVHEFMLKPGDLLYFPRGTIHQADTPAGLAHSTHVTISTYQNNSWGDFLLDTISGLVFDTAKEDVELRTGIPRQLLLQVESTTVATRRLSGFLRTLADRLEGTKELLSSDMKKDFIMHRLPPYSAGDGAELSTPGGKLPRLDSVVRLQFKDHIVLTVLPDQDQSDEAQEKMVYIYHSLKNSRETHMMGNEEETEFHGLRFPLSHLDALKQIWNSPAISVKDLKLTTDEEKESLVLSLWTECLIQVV
UniProt O75695: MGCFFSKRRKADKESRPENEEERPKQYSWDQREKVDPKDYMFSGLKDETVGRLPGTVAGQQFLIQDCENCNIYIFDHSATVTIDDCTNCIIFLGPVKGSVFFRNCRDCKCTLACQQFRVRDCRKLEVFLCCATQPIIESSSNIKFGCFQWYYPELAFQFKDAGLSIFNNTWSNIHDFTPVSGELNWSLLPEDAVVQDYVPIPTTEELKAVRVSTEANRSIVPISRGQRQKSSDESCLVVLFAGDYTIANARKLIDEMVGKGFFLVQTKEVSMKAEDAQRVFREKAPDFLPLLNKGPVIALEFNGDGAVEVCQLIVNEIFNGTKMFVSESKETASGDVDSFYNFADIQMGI
UniProt Q9H9A7: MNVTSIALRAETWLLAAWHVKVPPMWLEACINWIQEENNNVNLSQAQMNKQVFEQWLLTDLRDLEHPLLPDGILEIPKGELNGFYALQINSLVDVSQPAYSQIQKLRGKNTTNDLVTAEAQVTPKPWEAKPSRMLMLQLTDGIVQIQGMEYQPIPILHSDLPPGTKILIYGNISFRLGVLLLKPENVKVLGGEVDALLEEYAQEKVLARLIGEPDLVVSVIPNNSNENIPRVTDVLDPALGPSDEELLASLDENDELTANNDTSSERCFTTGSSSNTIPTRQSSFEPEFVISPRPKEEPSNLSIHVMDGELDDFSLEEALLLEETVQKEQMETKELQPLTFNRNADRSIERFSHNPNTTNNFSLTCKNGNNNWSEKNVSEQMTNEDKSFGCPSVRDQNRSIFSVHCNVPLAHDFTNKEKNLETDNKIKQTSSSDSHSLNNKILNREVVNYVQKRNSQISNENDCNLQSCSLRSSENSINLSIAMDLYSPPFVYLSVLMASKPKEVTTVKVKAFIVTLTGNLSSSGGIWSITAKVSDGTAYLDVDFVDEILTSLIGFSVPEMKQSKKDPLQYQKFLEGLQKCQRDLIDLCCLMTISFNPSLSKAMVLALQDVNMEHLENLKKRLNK
UniProt Q9UBS8: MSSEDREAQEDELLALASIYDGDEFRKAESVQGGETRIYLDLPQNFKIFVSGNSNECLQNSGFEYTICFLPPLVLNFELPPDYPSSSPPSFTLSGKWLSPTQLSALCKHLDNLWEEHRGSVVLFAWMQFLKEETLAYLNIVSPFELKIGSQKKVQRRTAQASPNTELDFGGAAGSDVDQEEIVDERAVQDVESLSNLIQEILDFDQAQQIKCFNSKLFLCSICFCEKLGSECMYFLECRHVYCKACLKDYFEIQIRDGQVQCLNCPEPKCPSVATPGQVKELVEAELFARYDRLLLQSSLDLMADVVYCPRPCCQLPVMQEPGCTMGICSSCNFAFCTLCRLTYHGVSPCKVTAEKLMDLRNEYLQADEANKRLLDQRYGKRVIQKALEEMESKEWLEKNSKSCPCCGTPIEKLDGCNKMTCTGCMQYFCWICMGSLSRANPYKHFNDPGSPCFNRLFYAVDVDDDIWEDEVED
UniProt O75792: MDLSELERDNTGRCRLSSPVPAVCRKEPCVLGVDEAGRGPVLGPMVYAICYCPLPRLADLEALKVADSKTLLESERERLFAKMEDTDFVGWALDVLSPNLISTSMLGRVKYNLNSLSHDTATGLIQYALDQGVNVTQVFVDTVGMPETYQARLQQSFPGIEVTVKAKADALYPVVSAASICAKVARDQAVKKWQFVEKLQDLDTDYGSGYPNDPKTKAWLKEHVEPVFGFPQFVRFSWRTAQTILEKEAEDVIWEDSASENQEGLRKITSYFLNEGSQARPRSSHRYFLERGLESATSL
UniProt P84095: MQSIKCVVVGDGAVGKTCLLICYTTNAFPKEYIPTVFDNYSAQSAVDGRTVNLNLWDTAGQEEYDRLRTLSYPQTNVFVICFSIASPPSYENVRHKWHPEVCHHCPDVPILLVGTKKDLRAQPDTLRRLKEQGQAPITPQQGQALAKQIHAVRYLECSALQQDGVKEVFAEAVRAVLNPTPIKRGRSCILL
UniProt Q06587: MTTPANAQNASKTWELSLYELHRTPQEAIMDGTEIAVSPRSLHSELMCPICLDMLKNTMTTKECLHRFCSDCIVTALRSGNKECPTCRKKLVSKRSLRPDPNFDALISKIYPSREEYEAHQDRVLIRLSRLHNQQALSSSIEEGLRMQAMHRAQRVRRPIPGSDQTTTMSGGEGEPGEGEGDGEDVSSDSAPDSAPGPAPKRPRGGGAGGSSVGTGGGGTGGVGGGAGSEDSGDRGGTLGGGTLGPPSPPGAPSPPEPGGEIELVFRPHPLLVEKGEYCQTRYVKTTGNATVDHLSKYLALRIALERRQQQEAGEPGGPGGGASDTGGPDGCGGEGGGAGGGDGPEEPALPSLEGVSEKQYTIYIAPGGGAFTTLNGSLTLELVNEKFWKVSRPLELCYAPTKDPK
UniProt Q9NTX7: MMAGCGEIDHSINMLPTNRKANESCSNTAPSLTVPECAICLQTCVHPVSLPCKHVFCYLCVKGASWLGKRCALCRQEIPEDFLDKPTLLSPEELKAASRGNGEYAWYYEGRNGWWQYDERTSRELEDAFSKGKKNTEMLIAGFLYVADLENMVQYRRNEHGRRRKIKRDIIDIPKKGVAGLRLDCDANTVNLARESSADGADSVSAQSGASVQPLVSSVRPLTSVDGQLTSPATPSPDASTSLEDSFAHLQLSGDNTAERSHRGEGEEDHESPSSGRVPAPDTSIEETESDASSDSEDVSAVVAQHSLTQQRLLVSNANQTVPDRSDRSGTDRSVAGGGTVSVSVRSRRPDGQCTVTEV
UniProt O76064: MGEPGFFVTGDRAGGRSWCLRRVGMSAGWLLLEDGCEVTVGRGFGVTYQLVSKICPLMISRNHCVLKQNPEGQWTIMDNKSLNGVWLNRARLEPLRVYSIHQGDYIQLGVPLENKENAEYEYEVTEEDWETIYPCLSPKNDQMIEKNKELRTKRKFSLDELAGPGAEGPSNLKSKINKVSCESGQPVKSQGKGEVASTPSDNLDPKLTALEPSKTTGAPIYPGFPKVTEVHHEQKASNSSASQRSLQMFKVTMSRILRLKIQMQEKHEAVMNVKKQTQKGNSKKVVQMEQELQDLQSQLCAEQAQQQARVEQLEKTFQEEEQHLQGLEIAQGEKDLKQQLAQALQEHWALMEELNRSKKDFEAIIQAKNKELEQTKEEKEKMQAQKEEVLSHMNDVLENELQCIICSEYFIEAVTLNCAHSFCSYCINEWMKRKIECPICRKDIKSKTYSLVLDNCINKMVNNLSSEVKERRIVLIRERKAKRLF
UniProt P17081: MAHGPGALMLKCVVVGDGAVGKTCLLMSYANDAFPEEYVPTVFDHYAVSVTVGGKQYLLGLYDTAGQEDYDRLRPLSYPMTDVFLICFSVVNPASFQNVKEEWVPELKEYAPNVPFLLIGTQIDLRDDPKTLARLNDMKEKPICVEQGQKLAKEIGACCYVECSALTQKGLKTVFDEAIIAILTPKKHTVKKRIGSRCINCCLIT

Key:
Experiment in all cases: log2 fold change, soluble protein after heating vs DMSO (PISA); higher = thermal stabilisation; K562 lysate, 10 uM; active = over 0.2 and 3.5 SD of the protein, either way, in both replicates (recomputed)
[1] = compound: NCC(=O)Nc1ccc(-n2nc(C(F)(F)F)cc2-c2ccc3c(ccc4ccccc43)c2)cc1
In short: (§1)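 Dounce homogenisation of K562 pellets in PBS pH 7.4 with 1 mM MgCl2 produced a crude extract, used at 1 mg/mL protein. Exposure to 10 μM compound lasted 30 min, and aliquots were then heated for 3 min across 48°C-58°C, pooled and brought to 0.5% NP-40 at 4°C. The supernatant after 21,000xg for 90 min was quantified by TMTpro 16plex LC-MS/MS with channel sums equalised. Duplicate values are given as log-two fold change in thermal stability relative to solvent controls.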

vorinostat = compound: O=C(CCCCCCC(=O)Nc1ccccc1)NO [vorinostat]
In short: as §1

silmitasertib = compound: O=C(O)c1ccc2c(c1)nc(Nc1cccc(Cl)c1)c1ccncc12 [silmitasertib]
In short: as §1

[2] = compound: O=C1NC(=O)C(c2cnc3ccccn23)=C1c1cn2c3c(cc(F)cc13)CN(C(=O)N1CCCCC1)CC2
In short: as §1

entospletinib = compound: c1cn2cc(-c3ccc4cn[nH]c4c3)nc(Nc3ccc(N4CCOCC4)cc3)c2n1 [entospletinib]
In short: as §1

Target | log2 fold change [1] | log2 fold change (vorinostat) | log2 fold change (silmitasertib) | log2 fold change [2] | log2 fold change (entospletinib)
RPL28 (UniProt P46779) | inactive: 0.012 | inactive: 0.033 | inactive: 0.008 | inactive: 0.043 | inactive: 0.007
RPL23A (UniProt P62750) | inactive: 0.017 | inactive: 0.162 | inactive: -0.029 | inactive: 0.009 | inactive: 0.02
RMDN1 (UniProt Q96DB5) | inactive: -0.005 | inactive: 0.105 | inactive: 0.022 | inactive: -0.017 | inactive: 0.006
RPL29 (UniProt P47914) | inactive: -0.027 | inactive: 0.159 | inactive: -0.046 | inactive: 0.052 | inactive: 0.01
RIOK1 (UniProt Q9BRS2) | inactive: 0.016 | inactive: -0.035 | active: 0.358 | inactive: -0.02 | inactive: 0.029
RNF114 (UniProt Q9Y508) | inactive: -0.001 | inactive: 0.008 | inactive: 0.011 | inactive: -0.007 | inactive: -0.019
RPL12 (UniProt P30050) | inactive: 0.022 | inactive: 0.164 | inactive: -0.005 | inactive: 0.014 | inactive: -0.012
RHOXF2 (UniProt Q9BQY4) | inactive: 0.057 | inactive: 0.092 | inactive: 0.008 | inactive: -0.01 | inactive: -0.034
RPL15 (UniProt P61313) | inactive: -0.02 | inactive: 0.088 | inactive: 0.003 | inactive: -0.015 | inactive: 0.009
ROR2 (UniProt Q01974) | inactive: -0.066 | inactive: -0.062 | inactive: 0.03 | inactive: 0.037 | inactive: -0.021
RNF20 (UniProt Q5VTR2) | inactive: 0.004 | inactive: -0.055 | inactive: 0.005 | inactive: 0.001 | inactive: 0.06
RNASEH2C (UniProt Q8TDP1) | inactive: 0.019 | inactive: -0.066 | inactive: 0.004 | inactive: -0.075 | inactive: -0.015
ROCK2 (UniProt O75116) | inactive: -0.003 | inactive: -0.116 | inactive: 0.003 | inactive: -0.042 | inactive: -0.042
RMDN3 (UniProt Q96TC7) | inactive: -0.049 | inactive: 0.024 | inactive: 0.048 | inactive: 0.015 | inactive: 0.07
RPL21 (UniProt P46778) | inactive: 0.055 | inactive: 0.093 | inactive: -0.05 | inactive: 0.017 | inactive: -0.005
RIC8B isoform 1 (UniProt Q9NVN3) | inactive: 0.057 | inactive: -0.071 | inactive: -0.002 | inactive: -0.004 | inactive: -0.085
RNF7 (UniProt Q9UBF6) | inactive: -0.051 | inactive: 0.047 | inactive: 0.04 | inactive: 0.082 | inactive: -0.16
RPE (UniProt Q96AT9) | inactive: -0.177 | inactive: 0.106 | inactive: -0.095 | inactive: 0.011 | inactive: 0.027
RPL35A (UniProt P18077) | inactive: 0.039 | inactive: 0.062 | inactive: -0.022 | inactive: 0.008 | inactive: -0.032
RPAP3 (UniProt Q9H6T3) | inactive: 0.021 | inactive: -0.11 | inactive: 0.012 | inactive: -0.019 | inactive: 0.006

Looked up above:
Value of RIOK1 (UniProt Q9BRS2) under log2 fold change (vorinostat): inactive: -0.035
Value of RPL29 (UniProt P47914) under log2 fold change (vorinostat): inactive: 0.159
Value of RPL35A (UniProt P18077) under log2 fold change [1]: inactive: 0.039

Going on with the list.

Target | log2 fold change [1] | log2 fold change (vorinostat) | log2 fold change (silmitasertib) | log2 fold change [2] | log2 fold change (entospletinib)
RPL31 (UniProt P62899) | inactive: 0.003 | inactive: 0.126 | inactive: 0.007 | inactive: 0.06 | inactive: 0.021
RIOX2 (UniProt Q8IUF8) | inactive: 0.07 | inactive: -0.053 | inactive: 0.013 | inactive: -0.052 | inactive: -0.009
RPL32 (UniProt P62910) | inactive: -0.037 | inactive: 0.076 | inactive: -0.049 | inactive: -0.005 | inactive: 0.008
RP2 (UniProt O75695) | inactive: -0.079 | inactive: 0.178 | inactive: -0.043 | inactive: -0.017 | inactive: 0.029
RICTOR isoform 3 (UniProt Q6R327) | inactive: 0.044 | inactive: -0.277 | inactive: 0.167 | inactive: -0.031 | inactive: -0.046
RIOK3 (UniProt O14730) | inactive: -0.024 | active: -0.605 | inactive: -0.017 | inactive: -0.024 | inactive: -0.004
RPL18 (UniProt Q07020) | inactive: 0.007 | inactive: 0.074 | inactive: 0.025 | inactive: 0.03 | inactive: 0.011
RMI1 (UniProt Q9H9A7) | inactive: 0.102 | inactive: -0.101 | inactive: 0.003 | inactive: 0.007 | inactive: 0.008
RPL26L1 (UniProt Q9UNX3) | inactive: -0.03 | inactive: 0.131 | inactive: 0.017 | inactive: 0.016 | inactive: 0.009
RPL10A (UniProt P62906) | inactive: 0.015 | inactive: 0.132 | inactive: 0.002 | inactive: 0.034 | inactive: 0.009
RNF14 (UniProt Q9UBS8) | inactive: 0 | inactive: -0.027 | inactive: -0.013 | inactive: -0.011 | inactive: -0.03
RNASEH2A (UniProt O75792) | inactive: 0.029 | inactive: 0.031 | inactive: -0.041 | inactive: -0.029 | inactive: 0.004
RHOG (UniProt P84095) | inactive: 0 | inactive: 0.092 | inactive: 0.001 | inactive: 0.01 | inactive: 0.015
RING1 (UniProt Q06587) | inactive: 0.027 | inactive: -0.138 | inactive: -0.008 | inactive: 0.044 | inactive: 0.028
RMND5A (UniProt Q9H871) | inactive: -0.016 | inactive: -0.112 | inactive: 0.008 | inactive: -0.045 | inactive: -0.04
RNF146 (UniProt Q9NTX7) | inactive: -0.021 | inactive: -0.007 | inactive: 0.008 | inactive: 0.016 | inactive: 0.009
RNF8 (UniProt O76064) |  | inactive: -0.164 | inactive: -0.016 | inactive: 0.069 | inactive: 0.143
RHOQ (UniProt P17081) | inactive: 0.199 |  |  |  | inactive: -0.132
RHPN2 (UniProt Q8IUC4) |  | inactive: 0.09 | inactive: -0.077 | inactive: 0.003 | inactive: 0.184
RNF167 (UniProt Q9H6Y7) |  |  |  | inactive: -0.023 | 
